# Measured values as given in PubChem BioAssay AID1259354 (Paczesny and Yang Labs, IUPUI and University of Michigan, 2018).
# Protein sequences, listed by entry. Tags and fused reporters are not part of them. Lines headed by an entry give the natural chain unless they say otherwise; changes in a name come on top.
# UniProt Q01638: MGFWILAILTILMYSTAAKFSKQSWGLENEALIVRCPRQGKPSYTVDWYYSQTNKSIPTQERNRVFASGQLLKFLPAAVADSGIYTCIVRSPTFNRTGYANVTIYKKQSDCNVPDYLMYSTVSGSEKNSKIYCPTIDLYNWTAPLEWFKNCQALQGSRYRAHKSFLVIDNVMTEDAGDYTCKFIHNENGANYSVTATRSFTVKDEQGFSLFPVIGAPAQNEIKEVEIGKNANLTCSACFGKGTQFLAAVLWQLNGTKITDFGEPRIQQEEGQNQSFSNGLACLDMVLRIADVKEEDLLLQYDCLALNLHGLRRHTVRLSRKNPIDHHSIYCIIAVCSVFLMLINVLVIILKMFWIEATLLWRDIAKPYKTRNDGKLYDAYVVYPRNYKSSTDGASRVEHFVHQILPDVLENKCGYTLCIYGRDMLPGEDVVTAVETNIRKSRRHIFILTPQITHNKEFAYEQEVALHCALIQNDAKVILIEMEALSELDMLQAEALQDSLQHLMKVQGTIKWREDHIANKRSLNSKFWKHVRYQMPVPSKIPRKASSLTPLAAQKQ
# In all, about 78,000 compounds went through this assay and about 1,800 (2.3%) were called active. This list was built around the results that the source calls inconclusive (neither active nor inactive); the mix of calls is not that of the screen. Cut-off read from the data, not from the text of the source: active = inhibition above about 30%; inconclusive = mostly about 10% to 28%; inactive = weaker than that.
# Molecular target: Interleukin-1 receptor-like 1 (Homo sapiens) (UniProt Q01638)
# Assay: blocks human ST2 binding to IL-33, primary screen, biochemical, AlphaLISA (AID 1259354)
# Conditions: AlphaLISA ST2-Fc/biotin-IL-33 interaction, 1 h; at 17 µM, hits give high values
row,Structure (SMILES),inhibition
1,COc1ccccc1NC(=O)C1=C(C)Nc2nnnn2C1c1ccc(C(C)C)cc1 (configuration not stated),inconclusive: 19%
2,Cc1ccc(N2C(=O)CC(Sc3nc4c(cc3C#N)CCC4)C2=O)cc1 (configuration not stated),inconclusive: 26%
3,COc1ccc(CC(NC(C)=O)C(=O)O)cc1 (configuration not stated),inconclusive: 21%
4,CCOC(=O)c1c(NC(=O)c2ccccc2Br)sc(C(C)=O)c1C,inconclusive: 11%
5,COc1cc(NS(=O)(=O)c2ccc(Cl)cc2)c(OC)cc1Cl,inconclusive: 17%
6,COC(=O)c1ccc(C(=O)Nc2nc3ccc4nc(C)sc4c3s2)cc1,active: 30%
7,Cc1cc(C(=O)NCCc2ccc(S(N)(=O)=O)cc2)ccc1[N+](=O)[O-],inactive
8,Cc1cccc(NC(=O)C2(S(=O)(=O)c3ccc(Cl)cc3)CC2)n1,inconclusive: 10%
9,O=C1CC(NS(=O)(=O)N2CCCCC2)CN1CCCc1ccccc1 (configuration not stated),inactive
10,CCC(C)N(Cc1ccncc1)Cc1ccc(OC)nc1 (configuration not stated),inconclusive: 15%
11,COc1cc2[nH]c3c(=O)n(CCC(=O)NCCc4ccc(S(N)(=O)=O)cc4)cnc3c2cc1OC,inactive
12,O=C(c1ccc(-c2ccc(-c3ccn[nH]3)cc2)o1)N1CCOCC1,inactive
13,Cc1ccc(-c2cn[nH]c2C2CCCN(C(=O)c3cnc4ccccn34)C2)cc1 (configuration not stated),inconclusive: 10%
14,O=C(NC1CCCCC1)O[C@@H]1CO[C@H]2[C@@H]1OC[C@@H]2n1nnnc1-c1ccccc1,active: 39%
15,Cc1ccc(OCCCOc2ccc(/C=C3/C(=N)N4C=CSC4=NC3=O)cc2)cc1C,inconclusive: 10%
16,O=C1Nc2cc(Cl)c(Cl)cc2N(O)N1c1ccc([N+](=O)[O-])cc1,inactive
17,COC(=O)[C@@H]1C[C@@H](NC(=O)c2cc(-n3cccn3)ccc2Cl)CN1C,inactive
18,CCCN(Cc1cccc([N+](=O)[O-])c1)CC1CC1,active: 96%
19,O=C(O)CCc1nn2c3ccccc3n(Cc3ccccc3)c2nc1=O,inconclusive: 16%
20,CSCCCn1cnc(-c2ccccc2)c1-c1cnc(C(C)C)nc1,inconclusive: 12%
21,Cn1c(=N)n(CCOc2ccc(Cl)cc2Cl)c2ccccc21,inconclusive: 10%
22,O=C(Nc1cccc2nsnc12)c1cnsn1,inconclusive: 22%
23,O=C1c2ccccc2C(Nc2ccc3c(c2)OCO3)N1Cc1ccccc1 (configuration not stated),inconclusive: 16%

# Reprinted at random: four compounds from above.
row,Structure (SMILES),inhibition
9,O=C1CC(NS(=O)(=O)N2CCCCC2)CN1CCCc1ccccc1 (configuration not stated),inactive
5,COc1cc(NS(=O)(=O)c2ccc(Cl)cc2)c(OC)cc1Cl,inconclusive: 17%
10,CCC(C)N(Cc1ccncc1)Cc1ccc(OC)nc1 (configuration not stated),inconclusive: 15%
20,CSCCCn1cnc(-c2ccccc2)c1-c1cnc(C(C)C)nc1,inconclusive: 12%

# Next part:

row,Structure (SMILES),inhibition
1,CC1CCCCC1NC(=O)c1ccc(NC(=O)C2CCCO2)cc1 (configuration not stated),inactive
2,Cc1cc(C(=O)N2C[C@@H]3[C@H](C2)[C@H]2CC[C@@H]3O2)c2c(C)nn(C)c2n1,inconclusive: 12%
3,C#CCn1cnc2c(cnn2-c2ccc(Cl)cc2)c1=O,inactive
4,N#C/C(=C/c1ccc(F)cc1)c1nc(-c2ccccc2)cs1,active: 56%
5,CC1(C)C[C@@H]2C[C@@](C)(CN2c2ccnc(C(=O)NCc3cccnc3)c2)C1,inactive
6,Cc1ccc(-c2noc(CCC(=O)Nc3nc4ccccc4s3)n2)cc1,inactive
7,O=C1OC(c2ccc(Br)cc2)=N/C1=C\N1CCCCC1,inconclusive: 24%
8,CCOc1ccc(NC2=CC(=NS(=O)(=O)c3ccc(OC)cc3)c3ccccc3C2=O)cc1,active: 94%
9,Cc1cccc(N(CC(=O)N2CCCCCC2)S(=O)(=O)c2ccccc2)c1C,inconclusive: 14%
10,CC(NC(=O)c1ncc[nH]1)C12CC3C[C@H](CC(O)(C3)C1)C2 (some centres not stated),inconclusive: 13%
11,CC(=O)c1cc(CN2CC[C@@H](c3ccc4ccccc4c3)[C@H](O)C2)n(C)c1,inconclusive: 19%
12,COc1ccc(-c2nnc(NC(=O)c3ccc(S(=O)(=O)N4CCCC4)cc3)o2)cc1,inconclusive: 14%
13,CC1CCN(S(=O)(=O)c2ccc(Cl)c(C(=O)Nc3ccc(C(=O)O)cc3)c2)CC1,inconclusive: 17%
14,COc1cc2c(cc1OC)CN(Cc1cc(I)c(O)c(OC)c1)CC2,inconclusive: 19%
15,COc1cc(NC(=O)C(C(C)C)N2C(=O)c3ccccc3C2=O)c(OC)cc1Cl (configuration not stated),active: 41%
16,O=C(CCC1CCN(Cc2cnn(-c3ccccc3)c2)CC1)Nc1ccccc1Cl,inconclusive: 18%
17,O=C(Nc1cccc2c1CCC2)c1ccc(CN2CCOCC2CO)cc1 (configuration not stated),inconclusive: 14%
18,COc1ccc(NC(=O)c2ccccc2I)cc1,inconclusive: 12%
19,CC1(C)CNC(=O)c2nc(C3OCCc4ccccc43)[nH]c2C1 (configuration not stated),inconclusive: 22%
20,O=S1(=O)C=CC(Sc2nc3ccccc3[nH]2)C1 (configuration not stated),inconclusive: 11%
21,COc1ccc2c(c1OC)C(=O)N1c3ccccc3N=C(c3ccc(C)cc3)CC21 (configuration not stated),inconclusive: 16%
22,Cc1[nH]c2ccc(CNc3cncc(C(=O)N(C)C)n3)cc2c1C,inconclusive: 18%
23,COc1ccc(CN2CCN(c3ccc([N+](=O)[O-])cc3)CC2)cc1C,inconclusive: 29%

row,Structure (SMILES),inhibition
1,COCCNC(=O)CN1CCN(Cc2ccc(F)cc2Cl)C1=O,inactive
2,CCc1nccc(CN2CCC(CNC(=O)C3CCC(C)CC3)C2)n1 (configuration not stated),inconclusive: 16%
3,CCOc1ccc(C2CC(=O)N3CN(c4ccccc4OCC)CSC3=C2C#N)cc1OC (configuration not stated),inconclusive: 14%
4,Cc1ccc(NS(=O)(=O)c2ccc3c(c2)CCN3C(=O)C2CC2)cc1C,inactive
5,COc1cccc2sc(NC(=O)c3ccco3)nc12,inactive
6,CC(CC(=O)Nc1ccccc1C(N)=O)c1ccccc1 (configuration not stated),inconclusive: 12%
7,CCOc1cc(/C=C(\C#N)c2nn(-c3ccccc3)c(N)c2C#N)cc(Br)c1OC,active: 31%
8,O=C(c1cc([N+](=O)[O-])ccc1Cl)n1nnc2ccccc21,inactive
9,CC(=O)N1CCc2c(nc(C)nc2N2CCC(O)(Cn3ccnc3)CC2)C1,inactive
10,CC(=O)C1=NN(c2ccc(Cl)cc2)C2C(=O)N(c3ccccc3Cl)C(=O)C12 (configuration not stated),inactive
11,CC(C)Cn1cc(C(=O)N2CCN(C3CCCCC3)CC2)c2c3ccccc3n(C)c2c1=O,inactive
12,Cc1cccnc1CC(C)NC(=O)c1n[nH]c(=O)c2ccccc12 (configuration not stated),inconclusive: 10%
13,Cc1ccccc1N1CCN(C2CCCN(Cc3nc(-c4ccccc4)cs3)C2)CC1 (configuration not stated),inconclusive: 11%
14,CCN(CC)S(=O)(=O)c1ccc(-c2csc(=Nc3ccc(F)cc3)n2CCO)cc1,inconclusive: 27%
15,O=C(Nc1cc(Cl)ccc1O)c1cc(-c2ccc(F)cc2)on1,inactive
16,O=S(=O)(NCc1ccccc1Cl)c1cccc2cccnc12,inconclusive: 17%
17,CCN(CC)CCNC(=O)c1ccc2c(c1)NC(=O)CS2,inactive
18,O=C(CSc1ccccn1)Nc1c(C(=O)c2ccc(F)cc2)oc2ccccc12,inconclusive: 12%
19,C=CCNC(=O)/C(=C/c1ccc2c(c1)OCO2)NC(=O)c1ccc(Br)cc1,inconclusive: 11%
20,COc1ccc(/C=C/C(=O)Nc2ccc3nc(N4CCN(C)CC4)cc(C)c3c2)cc1OC,inactive
21,CCN1CCCC1CNC(=O)CCC1CCN(CC2=Cc3cccc(OC)c3OC2)CC1 (configuration not stated),inconclusive: 11%
22,CCC(C(=O)N1CCOc2c(O)cc(-c3cccnc3)cc2C1)n1cccc1 (configuration not stated),inconclusive: 23%
23,CCn1cc(C(=O)NCCC(C)C)c(=O)c2cc(S(=O)(=O)N3CCC(C)CC3)ccc21,inactive

row,Structure (SMILES),inhibition
1,COc1ccccc1CN=c1c([N+](=O)[O-])nn(-c2ccccc2)n1O,inconclusive: 18%
2,NC(=O)CSc1oc(-c2ccccc2)nc1S(=O)(=O)c1ccc(Br)cc1,inconclusive: 12%
3,Nc1c(C(=O)c2ccc(Br)s2)oc2ccccc12,inconclusive: 25%
4,O=C(CSc1nc(-c2ccccc2)cc(=O)[nH]1)N1CCc2ccccc2C1,inactive
5,N#Cc1cc2c(nc1SCC(=O)Nc1cnc3ccccc3c1)CCCCCC2,inconclusive: 15%
6,CC(C)C1c2[nH]c3ccccc3c2CCN1C(=O)CSc1ccc2nnc(-c3cccnc3)n2n1 (configuration not stated),inactive
7,Cc1cccnc1Nc1nc(-c2ccc(O)c(O)c2)cs1,inconclusive: 24%
8,O=C1OC(c2cccc([N+](=O)[O-])c2)=N/C1=C\C=C\c1ccccc1,inconclusive: 10%
9,O=C(CN1CCN(Cc2ccc(F)cc2Cl)S1(=O)=O)Nc1ccccc1F,inconclusive: 19%
10,Cn1ccnc1-c1nccn1CCCc1ccccc1,inconclusive: 10%
11,CCOC(=O)c1c(NC(=O)c2noc3c2CCCC3)sc(C)c1C,inconclusive: 16%
12,O=[N+]([O-])c1ccc(Nc2nc(Cl)nc(NCc3ccco3)n2)cc1,inconclusive: 19%
13,Cc1nc2nc(SCC(=O)NC(C)c3ccccc3)nn2c(C)c1Cc1ccccc1 (configuration not stated),inconclusive: 11%
14,CCO[C@H]1COC[C@@H]1NC(=O)c1occc1C,inactive
15,Cc1cccc(-n2cc(-c3ccn(CC(=O)Nc4ccnn4C)n3)cn2)c1,inconclusive: 17%
16,COC(=O)c1cccc(NC(=S)N[C@H]2CO[C@H]3[C@@H]2OC[C@@H]3Nc2nccc(-c3ccc(OC)cc3)n2)c1,inconclusive: 13%
17,Cc1ccc(-n2c(C)ccc2C)c([N+](=O)[O-])c1,inconclusive: 25%
18,COC(=O)c1cc(-c2cccc(OC)c2OC)no1,inactive
19,Cc1ncc(-c2nccn2C(C)c2cnn(-c3ccccc3)c2)n1C (configuration not stated),inconclusive: 19%
20,N#CC1=C(N)OC2=C(C(=O)CC(c3ccccc3)C2)C1c1ccc(Br)s1 (configuration not stated),inconclusive: 12%
21,O=C(N[C@H]1C[C@H]2C(=O)NC[C@@H](CCC(=O)N3CCN(c4ccccn4)CC3)N2C1)c1ccccc1,inconclusive: 18%
22,O=C(Nc1ccc2nc(-c3ccco3)c(-c3ccco3)nc2c1)N1CCOCC1,active: 36%
23,COc1ccc(CNC(=O)CC[C@H]2CNC(=O)[C@@H]3[C@@H](CCN3Cc3ccccc3)N2C)cc1,inconclusive: 14%
